From PubChem BioAssay AID540276 (National Center for Advancing Translational Sciences (NCATS), 2011)
Out of some 300,000 compounds screened, about 5,400 (1.8%) were called active. Inconclusive results, whose numbers are uncertain, are shown with a selection of clear calls. Calls come from the whole dose curve; tested in HEK293 cells. Potencies of inconclusive entries are doubtful fits and often do not repeat.

Test: qHTS for inhibitors of binding or entry into cells for Marburg Virus
Settings: Marburg virus pseudotyped entry inhibition, cell reporter; activity change, negative = inhibition: at 37.8 µM (top of the series) unless noted
% is set by controls: 0 for no effect and ±100 for the full control effect; potency is the fitted concentration of half-maximal effect.

Row | Structure (SMILES) | Potency | activity change, negative = inhibition
1 | O=[N+]([O-])c1ccccc1S(=O)(=O)NCCSCc1ccco1 | inconclusive: 5.62 µM [activator, single point] | –
2 | CC(OC(=O)C1=COCCO1)C(=O)Nc1ncc(Cl)cc1Cl (stereo unspecified) | – | inactive: 9.73% [at 46.1 µM]
3 | CCCOc1ccc2cc(-c3ccccn3)c(=O)oc2c1 | active: 1.78 µM | –
4 | CC(C)(C)c1ccc(/C=N/Nc2ccc(C(=O)O)cc2)cc1 | active: 3.66 µM | –
5 | O=C(OCCN1CCOCC1)c1ccccc1 | inconclusive: 12.6 µM [activator, partial curve, poor fit] | –
6 | O=C(O)C1C2C=CC(O2)C1C(=O)NCc1ccc(Cl)cc1 (stereo unspecified) | inconclusive: 35.5 µM [activator, single point] | –
7 | CCOC(=O)CNC(=O)C12CC3CC(C1)CC(c1ccc(C)cc1)(C3)C2 | – | inactive: 0.502% [at 46.1 µM]
8 | CCOC(=O)C1=C(CNCc2ccc(F)cc2)NC(=O)NC1c1cccc([N+](=O)[O-])c1 (stereo unspecified) | inconclusive: 25.1 µM [inhibitor, single point] | –
9 | Nc1ncc(Br)cc1S(=O)(=O)N1CCCCCC1 | – | inactive: -7.47% [at 46.1 µM]
10 | Cc1cc(F)ccc1S(=O)(=O)N1CCC2(CC1)OCCN2S(=O)(=O)c1cccs1 | inconclusive: 31.6 µM [inhibitor, partial curve, poor fit] | –
11 | Cc1ccc(NC(=O)N(Cc2c[nH]c3ccccc23)C2CCCCCC2)cc1C | inconclusive: 6.31 µM [inhibitor, single point] | –
12 | Cc1cc(C)c(S(=O)(=O)NCC2CCC(C(=O)NCc3ccccn3)CC2)c(C)c1 (stereo unspecified) | – | inactive: 0.5% [at 46.1 µM]
13 | Cc1ccc(C(=O)c2cc([N+](=O)[O-])ccc2N2CCOCC2)cc1C | inconclusive: 1.46 µM [inhibitor, partial curve] | –
14 | COc1cc(-c2nnc3n(CCc4ccccc4)c(=O)c4ccccc4n23)cc(OC)c1OC | – | inactive: 13.9%
15 | CCN(CC)c1ccc(NC(=S)Nc2ccc(F)cc2)cc1 | inconclusive: 0.891 µM [activator, full curve, poor fit] | –
16 | O=C(CSc1ccc(F)cc1)Nc1ccc(C2SCCS2)cc1 | inconclusive: 1.58 µM [activator, partial curve, poor fit] | –
17 | O=C(NCCC1=CCCCC1)C1CCN(S(=O)(=O)c2ccccc2)CC1 | inconclusive: 35.5 µM [activator, partial curve, poor fit] | –
18 | CC(=O)Nc1cccc(NC(=O)CSc2nc(C)c(C)c(C)c2C#N)c1 | inconclusive: 29.1 µM [activator, partial curve, poor fit] | –
19 | COc1ccc2nc(Cl)cc(Cl)c2c1 | – | inactive: 9.4% [at 46.1 µM]
20 | CCCCSc1ncnc2c1ncn2C1CCCCO1 (stereo unspecified) | inconclusive: 2.51 µM [activator, partial curve, poor fit] | –
21 | O=C(NC1CCCCC1)c1ccc(-c2ccccc2F)o1 | inconclusive: 15.8 µM [inhibitor, single point] | –
22 | Cc1ccc(S(=O)(=O)NCCC(=O)N2CCN(c3cccc(Cl)c3)CC2)cc1C | inconclusive: 35.5 µM [inhibitor, single point] | –
23 | CCOC(=S)SCc1cn2ccccc2n1 | – | inactive: -15.7% [at 46.1 µM]
24 | COc1ccc(NC(=S)N2CCC(N(C)CCN3CCOCC3)CC2)cc1Cl | inconclusive: 29.1 µM [inhibitor, partial curve, poor fit] | –

Row | Structure (SMILES) | Potency | activity change, negative = inhibition
25 | O=C(NCc1ccncc1)C(=O)N/N=C/c1ccc(OCc2ccccc2)cc1 | inconclusive: 14.1 µM [inhibitor, single point] | –
26 | CN(c1ccccc1C(=O)O)S(C)(=O)=O | – | inactive: -33.6%
27 | Cc1ccc2c(c1)c1c3n2CCN(CCC(=O)O)C3CCC1 (stereo unspecified) | inconclusive: 0.794 µM [inhibitor, single point] | –
28 | CCOc1ccc(-c2csc(NC(=O)CSC3=NC(=O)CN3C(C)=O)n2)c2ccccc12 | – | inactive: -26.8%
29 | Cc1cc(C=C2C(=O)c3ccccc3C2=O)c(C)n1-c1ccccc1 | active: 6.51 µM | –
30 | COc1ccc2cc(C3OCCO3)c(Cl)nc2c1 | – | inactive: 5.7%
31 | Nc1nc(-c2ccc3ccccc3c2)c(C2(O)C(=O)Nc3c(Br)cc(F)cc32)s1 (stereo unspecified) | inconclusive: 20.6 µM [inhibitor, partial curve, poor fit] | –
32 | COc1ccc(-c2cnnc(N/N=C/c3ccc(O)c(OC)c3)n2)cc1 | inconclusive: 11.2 µM [inhibitor, partial curve, poor fit] | –
33 | CCCOc1ccc(/C=N/NC(=O)CSc2ccccn2)cc1OC | inconclusive: 7.94 µM [activator, partial curve, poor fit] | –
34 | O=C(Nc1ccccc1N1CCOCC1)c1ccc2nc[nH]c2c1 | inconclusive: 11.2 µM [inhibitor, single point] | –
35 | NC(=O)C1CCN(CC(=O)Nc2cccnc2Cl)CC1 | – | inactive: 8%
36 | CCCC(c1nnnn1CS(=O)(=O)c1ccc(C)cc1)N1CCN(C2CCCC2)CC1 (stereo unspecified) | inconclusive: 35.5 µM [inhibitor, single point] | –
37 | Clc1ccc(Nc2ncnc3ccc(Br)cc23)cc1 | inconclusive: 29.1 µM [inhibitor, single point] | –
38 | CCOC(=O)c1ccc(NC(=O)CSc2nnc(-c3cccs3)n2C)cc1 | – | inactive: 0.685%
39 | CCN(C(=O)CSc1nc2ccccc2c(=O)n1-c1ccc(C)cc1)C1CCS(=O)(=O)C1 (stereo unspecified) | inconclusive: 1 µM [inhibitor, full curve, poor fit] | –
40 | CC1CCc2[nH]c3ccc(C(=O)N(C)CC(=O)Nc4cccc(F)c4)cc3c2C1 (stereo unspecified) | inconclusive: 14.1 µM [inhibitor, partial curve, poor fit] | –
41 | CCCn1c(SCC#N)nc2c(c1=O)C1(CCCC1)Cc1ccccc1-2 | inconclusive: 25.1 µM [inhibitor, partial curve, poor fit] | –
42 | CCN1CCN(CCC(=O)Nc2ccc(Br)cc2)CC1 | inconclusive: 0.355 µM [activator, full curve, poor fit] | –
43 | COc1cc(Cl)c(C)cc1NC(=O)Cn1cnc2sc(C)c(S(=O)(=O)N3CCCCC3)c2c1=O | inconclusive: 25.1 µM [inhibitor, single point] | –
44 | COC(=O)C1=NNC(C(=O)c2ccco2)C1c1ccccc1 (stereo unspecified) | – | inactive: -2.14%
45 | CN(C)c1ccc(C(=O)NCc2ccc3c(c2)OCO3)cc1 | inconclusive: 20 µM [activator, single point] | –
46 | COc1ccc(C(=O)O/N=C(/c2ccccc2)c2ccncc2)cc1 | – | inactive: 0.53%
47 | COc1ccc(-c2nc(CN3CCN(c4ccccc4OC)CC3)c(C)o2)cc1 | inconclusive: 22.4 µM [inhibitor, partial curve, poor fit] | –
48 | CCOc1cc(/C=N\NC(=O)c2ccc(NC(=O)C(C)(C)C)cc2)ccc1OC(=O)c1ccc(C)cc1 | – | inactive: 34%

Six records picked at random from the list so far, as already listed:
Row | Structure (SMILES) | Potency | activity change, negative = inhibition
36 | CCCC(c1nnnn1CS(=O)(=O)c1ccc(C)cc1)N1CCN(C2CCCC2)CC1 (stereo unspecified) | inconclusive: 35.5 µM [inhibitor, single point] | –
25 | O=C(NCc1ccncc1)C(=O)N/N=C/c1ccc(OCc2ccccc2)cc1 | inconclusive: 14.1 µM [inhibitor, single point] | –
37 | Clc1ccc(Nc2ncnc3ccc(Br)cc23)cc1 | inconclusive: 29.1 µM [inhibitor, single point] | –
35 | NC(=O)C1CCN(CC(=O)Nc2cccnc2Cl)CC1 | – | inactive: 8%
44 | COC(=O)C1=NNC(C(=O)c2ccco2)C1c1ccccc1 (stereo unspecified) | – | inactive: -2.14%
40 | CC1CCc2[nH]c3ccc(C(=O)N(C)CC(=O)Nc4cccc(F)c4)cc3c2C1 (stereo unspecified) | inconclusive: 14.1 µM [inhibitor, partial curve, poor fit] | –

Next part:

Row | Structure (SMILES) | Potency | activity change, negative = inhibition
49 | COc1ccc([N+](=O)[O-])cc1N(CC(=O)NC1CCCCC1)S(C)(=O)=O | – | inactive: 6.42% [at 46.1 µM]
50 | N=C1C(c2nc3ccccc3[nH]2)=C(O)CN1c1ccccc1 | – | inactive: -6.71%
51 | Cc1ccc(-n2c(C)cc(/C=C(\C#N)C(=O)NCC3CCCO3)c2C)cc1 (stereo unspecified) | inconclusive: 0.73 µM [activator, full curve] | –
52 | c1ccc(-c2nc(NCc3ccco3)c3ccccc3n2)nc1 | inconclusive: 11.2 µM [inhibitor, partial curve] | –
53 | Cc1ccc(C2CC(=O)c3cnc(N4CCN(c5ccccc5)CC4)nc3C2)cc1 (stereo unspecified) | – | inactive: 4.75%
54 | Cc1ccccc1N(C(=O)c1snc(C(N)=O)c1N)C(C(=O)NCC1CCCO1)c1ccc(N(C)C)cc1 (stereo unspecified) | – | inactive: -25.3% [at 46.1 µM]
55 | COCCN=C1NN=C(c2ccc(C)c([N+](=O)[O-])c2)CS1 | inconclusive: 0.82 µM [activator, full curve, poor fit] | –
56 | CCCCSCCCNC(=O)c1cn(CC)c2ccc(S(=O)(=O)N(C)C3CCCCC3)cc2c1=O | – | inactive: -19.6% [at 46.1 µM]
57 | COC1=C[C@H](C(=O)N2CCCC2)[C@H](C)[C@@H](c2ccccc2)CC1=O | – | inactive: 2.01% [at 14.2 µM]
58 | CC(C)c1ccc(NC(=O)c2cccnc2)cc1 | – | inactive: -14.7%
59 | Cc1cc2nc(-c3ccc[nH]c3=O)n(Cc3ccc(F)cc3)c2cc1C | – | inactive: -11.9% [at 46.1 µM]
60 | O=[N+]([O-])c1ccc(N2CCN(S(=O)(=O)Cc3ccccc3)CC2)cc1N1CCOCC1 | inconclusive: 0.891 µM [inhibitor, full curve] | –
61 | NC(=O)CSc1nc(O)cc(=O)n1-c1ccccc1 | inconclusive: 3.55 µM [activator, single point] | –
62 | Cc1ccc(-c2noc(CN(C(=O)c3ccc(C(C)(C)C)cc3)C(C)C)n2)cc1 | – | inactive: 8.73% [at 46.1 µM]
63 | CCOC(=O)c1ccccc1NC(=O)CN(c1cc(C(F)(F)F)ccc1Cl)S(C)(=O)=O | inconclusive: 4.47 µM [inhibitor, full curve, poor fit] | –
64 | O=C(COC(=O)CN1C(=O)c2ccccc2C1=O)NC1CCCC1 | inconclusive: 17.8 µM [inhibitor, partial curve, poor fit] | –
65 | O=C(Nc1ccc(F)cc1)c1ncn(-c2ccccc2)n1 | inconclusive: 6.31 µM [activator, partial curve, poor fit] | –
66 | Cc1cc(C(=O)OCC(=O)N2CC(=O)Nc3ccccc32)c(C)n1-c1ccccc1 | inconclusive: 11.2 µM [inhibitor, single point] | –
67 | CCOn1c(=O)c[n+]([O-])c2ccccc21 | inconclusive: 0.316 µM [activator, full curve, poor fit] | –
68 | COc1ccc(CNC(=O)Cc2nn(C)c(=O)c3ccccc23)cc1 | inconclusive: 3.16 µM [inhibitor, partial curve] | –
69 | CCS(=O)(=O)N1CCC(NC(C)=O)(c2ccccc2)CC1 | – | inactive: -2.55% [at 46.1 µM]
70 | CN1c2cccc3cccc(c23)N(C)C1c1cccs1 | inconclusive: 6.51 µM [inhibitor, single point] | –
71 | O=C(CSc1nc2cc(Cl)ccc2s1)N1CCCc2ccccc21 | inconclusive: 18.3 µM [inhibitor, single point] | –
